Laboratory results: US20050203007A1
Changes are numbered by the printed parent chain. Results are given in words; binding and its absence hold for the method and conditions named. A result given as binding can be weak or reduced; the word gives no strength.

B1: R1-eglin (designed binder)
chain: SMGSELKSFPEVVGKTVDQAREYFTLHYPQYDVYFLPEGSPVTRDLRYNRVRVFYNPGTNVVNHVPHVG
B2: R4K1-eglin (designed binder)
chain: B1 chain with P41R, R44K
B3: M4K1-eglin (designed binder)
chain: B1 chain with P41M, R44K

These binders were tested against trypsin (assay: titration of inhibitor with active-site titrated trypsin).

binding | Binder
binds | B1
binds | B2
binds | B3
